This is an account of results in US20150204870A1.

Experiment [1] addresses T1, podocalyxin (glycoprotein secreted into the culture supernatant of undifferentiated ES/iPS cells) (human) (UniProt O00592).
T1 sequence (looked up): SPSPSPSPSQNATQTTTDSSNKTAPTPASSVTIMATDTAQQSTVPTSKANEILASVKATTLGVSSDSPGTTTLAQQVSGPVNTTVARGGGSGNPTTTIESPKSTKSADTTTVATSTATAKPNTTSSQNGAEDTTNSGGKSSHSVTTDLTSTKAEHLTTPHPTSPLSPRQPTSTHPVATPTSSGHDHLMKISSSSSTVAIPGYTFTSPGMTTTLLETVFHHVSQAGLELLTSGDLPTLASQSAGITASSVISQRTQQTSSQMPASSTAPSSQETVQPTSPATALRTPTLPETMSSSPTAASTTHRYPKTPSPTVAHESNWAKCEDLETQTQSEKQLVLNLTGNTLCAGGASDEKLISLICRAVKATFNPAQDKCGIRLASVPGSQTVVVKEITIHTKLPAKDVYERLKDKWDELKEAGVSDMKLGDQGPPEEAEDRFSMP
The experiment in a line: Cy3-labelled lectin overlay on marker captured from iPS culture supernatant by immobilised rBC2LCN.

Experiment [2] has as its target T1, podocalyxin (glycoprotein secreted into the culture supernatant of undifferentiated ES/iPS cells) (human). The experiment in a line: sandwich ELISA, biotinylated rBC2LCN on streptavidin plate, HRP-labelled detection lectin, A450. Background: In an ELISA, binding on a coated surface is turned into a signal by an enzyme label.

No constants are given. Whether binding was seen depends on the method and setting. Some binding calls cover weakened binding; strength is not graded here.

B1: rXCL (recombinant Xerocomus chrysenteron lectin) (protein)
chain: MGHMSYSITLRVYQTNRDRGYFSIVEKTVWHFANGGTWSEANGAHTLTQGGSGTSGVLRFLSTKGERITVAVGVHNYKRWCDVVTGLKPDETALVINPQYYNNGGRDYVREKQLAEYSVTSAIGTKVEVVYTVAEGNNLEANVIFS
On to B1, for which the binding entry in experiment [1] and in experiment [2] was “binds” throughout.
